For two substances, binding results are on record in PMC10920091.

Amino acid sequences for entries named in this document (tags omitted). A change or cut given only in a name is not applied to a line headed by its entry. Chains listed by the source or under a name are the forms on record and can include a tag or linker.
endogenous PDE4D7 (human (endogenous in VCaP, LNCaP)) (Q08499, form named): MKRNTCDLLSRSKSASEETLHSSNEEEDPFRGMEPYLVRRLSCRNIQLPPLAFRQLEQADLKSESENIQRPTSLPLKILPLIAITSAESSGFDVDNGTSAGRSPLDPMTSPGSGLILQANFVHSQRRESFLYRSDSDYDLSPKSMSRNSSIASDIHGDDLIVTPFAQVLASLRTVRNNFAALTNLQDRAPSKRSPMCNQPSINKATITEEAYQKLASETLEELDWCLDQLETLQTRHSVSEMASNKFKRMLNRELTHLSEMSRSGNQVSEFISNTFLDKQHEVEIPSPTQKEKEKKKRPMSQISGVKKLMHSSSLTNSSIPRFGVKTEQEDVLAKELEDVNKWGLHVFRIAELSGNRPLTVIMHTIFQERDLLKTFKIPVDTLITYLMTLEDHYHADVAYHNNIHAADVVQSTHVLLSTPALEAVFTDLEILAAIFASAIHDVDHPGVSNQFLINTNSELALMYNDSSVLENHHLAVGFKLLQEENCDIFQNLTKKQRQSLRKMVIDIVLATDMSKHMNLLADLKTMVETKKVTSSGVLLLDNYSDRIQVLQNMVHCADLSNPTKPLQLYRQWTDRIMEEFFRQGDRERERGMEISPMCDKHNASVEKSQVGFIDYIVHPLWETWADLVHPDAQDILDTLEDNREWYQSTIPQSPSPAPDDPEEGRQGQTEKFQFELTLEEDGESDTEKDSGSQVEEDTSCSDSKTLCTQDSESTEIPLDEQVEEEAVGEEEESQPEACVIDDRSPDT

Results are given in words; binding and its absence hold for the method and conditions named. In cells and extracts the contact can be indirect. Some binding calls cover weakened binding; strength is not graded here.

The target in test [1] is PDE4D7-VSV (cAMP-specific 3',5'-cyclic phosphodiesterase 4D isoform 7, VSV-tagged) (human) (UniProt Q08499). Briefly: co-IP; HEK293 cells co-transfected with PDE4D7-VSV and DHX9-FLAG; IP with VSV-agarose beads; blots for FLAG and VSV.
Test [2] deals with endogenous PDE4D7 (human (endogenous in VCaP, LNCaP)) (UniProt Q08499). The test is described as follows: proximity ligation; endogenous PDE4D7 and DHX9 in fixed, permeabilised LNCaP cells; Duolink In Situ Red kit Goat/Rabbit; confocal Z-stacks.
The target is the same in test [3]. The test is described as follows: co-IP; endogenous proteins, 500 ug VCaP lysate, PDE4D7-specific antibody on Protein G Sepharose overnight, IgG control; blots for PDE4D7 and DHX9.
For test [4] the target is unchanged. The test is described as follows: proximity ligation; endogenous PDE4D7 and DHX9 in LNCaP cells treated with 0.1% DMSO, 10 uM scrambled peptide or 10 uM UCR1 disruptor peptide; PLA signal normalised to DMSO.

As for “DHX9-FLAG (ATP-dependent RNA helicase A, FLAG-tagged) (from UniProt Q08211-1 1-1270) (enzyme)”, the binding result in test [1] is on record as “binds”.
Consider “endogenous DHX9 (ATP-dependant RNA helicase A) (from UniProt Q08211-1 1-1270)”, for which the binding entry in test [2], in test [3] and in test [4] was “binds” in each case.
